In US20060276390A1, “Combined treatments comprising synthetic peptide copolymers for preventing graft rejection” (YEDA RESEARCH AND DEVELOPMENT CO. LTD., priority 2003, published 2006):

Tested on: thyroid glands from B10.D2 donors transplanted in the kidney's capsules of BALB/c mice
Test: Function of transplanted thyroids (I125 absorbance), B10.D2→BALB/c model
Format: in vivo, mouse
Conditions: FK 506 300 μg/day ip, 7 times from day −2
Protocol: In this transplantation model for HVG, thyroid glands from donor mice were transplanted in the kidney's capsules of recipient mice. One week later the transplanted mice were injected with ^125I, and the radioactivity of each kidney (the recipient or the untransplanted kidney) was measured after 20 hours. Δcpm was calculated by subtracting the ^125I absorbance of the untransplanted kidneys from the ^125I absorbance of the recipient kidneys in the same treatment. The mean function index (MFI) for treatment was calculated by dividing the mean Δcpm for the tested treatment by the mean Δcpm for the PBS treatment. P values were obtained by the ANOVA test. This assay indicates objectively and quantitatively not only the graft survival, but also the function (iodine absorbance) of the transplanted thyroid tissue (Isakov et al., 1979). […]
To test the effect of Copolymer 1 treatment on the function of transplanted thyroids in the B10.D2→BALB/c model, thyroid glands from donors B10.D2 were transplanted in the kidney's capsules of BALB/c mice. After one week the transplanted mice were injected with I^125, and the radioactivity of each kidney was measured 20 hours later. A cpm was calculated by subtracting the I^125 absorbance of the untransplanted kidneys from the I^125 absorbance of the recipient kidneys in the same treatment. […]

SMILES: C=CC[C@@H]1/C=C(\C)C[C@H](C)C[C@H](OC)[C@H]2O[C@@](O)(C(=O)C(=O)N3CCCC[C@H]3C(=O)O[C@H](/C(C)=C/[C@@H]3CC[C@@H](O)[C@H](OC)C3)[C@H](C)[C@@H](O)CC1=O)[C@H](C)C[C@@H]2OC [FK 506, tacrolimus]
- Mean I^125 Absorption, untransplanted Kidney: 693 cpm
